Drawing on patent US20030165973A1, this text covers binding for one molecule.

This assay deals with PPAR-γ. Kind of assay: co-immunoprecipitation from transfected COS cell extracts with rabbit anti-murine PPAR-γ, then anti-HA Western blot (ECL).

These are yes or no findings as the source states them, for the method shown. Binding seen in cells or lysates may run through a third protein. Binding calls can cover weak binding; strength is not graded here. Sequences can lack the tags named with a protein.

B1: HA-tagged PGC-1-like protein polypeptide (protein, not shown: small tags and cut ends)
chain: MPPVYASEYVLPLQGGGSGEEQLYADFPELDLSQLDASDFDSATCFGELQWCPENSETEPNQYSPDDSELFQIDSENEALLAELTKTLDDIPEDDVGLAAFPALDGGDALSCTSASPAPSSAPPSPAPEKPSAPAPEVDELSLEEEEEEEEEEKEEEEEWGRKRPGRGLPWTKLGRKLESSVCPVRRSRRLNPELGPWLTFADEPLVPSEPQGALPSLCLAPKAYDVERELGSPTDEDSGQDQQLLRGPQIPALESPCESGDPTFGKKSFEQTLTVELCGTAGLTPPTTPPYKPTEEDPFKPDIKHSLGKEIALSLPSPEGLSLKATPGAAHKLPKKHPERSELLSHLRHATAQPASQAGQKRPFSCSFGDHDYCQVLRPEGVLQRKVLRSWEPSGVHLEDWPQQGAPWAEAQAPGREEDRSCDAGAPPKDSTLLRDHEIRASLTKHFGLLETALEEEDLASCKSPEYDTVFEDSSSSSGESSFLPEEEEEEGEEEEEDDEEEDSGVSPTCSDHCPYQSPPSKANRQLCSRSRSSSGSSPCHSWSPATRRNFSSRGARSPRREDPWEACSETEAASPSVAHVLVRSLEDWHCPLSDSSRYCSLSQASWTRTRTPREPTPRGAPGSQAMTESLSVLLLGQGEGRVVYIQNLSSDMSSRELKRRFEVFGEIEECEVLTRNRRGEKYGFITYRCSEHAALSLTKGAALRKRNEPSFQLSYGGLRHFCWPRYTDYDSNSEEALPASGKSKYEAMDFDSLLKEAQQSLH
As to B1, the binding entry is “binds”.
